Literature values in patent US20070232672A1, “Pharmaceutical Composition And Method For Treating Neurodegenerative Disorders” (Myriad Genetics, Incorporated, priority 2004, published 2007).
At least one structure is not confirmed: it was looked up by name or label, or the drawing left a doubt.

Conditions: several recent clinical trials (Jhee et al., Sainati et al.)

## Cc1ccc(-c2cc(C(F)(F)F)nn2-c2ccc(S(N)(=O)=O)cc2)cc1 [Celecoxib]
  efficacy in clinical trials for the treatment of AD: failed to show efficacy
